Measured values published in the supplement of paper PMC12823440, “Inhibitors supercharge kinase turnover through native proteolytic circuits” (Nature, 2025).
Where a name gives a salt, the structure may show the parent alone. The list shows a part of the results. The calls rarely recur for the same compound in another form.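 In K562 cells expressing nanoluciferase-fused kinases, luminescence was recorded at 4 h intervals between 2 and 18 h, normalized as percent of control with DMSO at 100% and a positive control at 0%. A significant (2 sigma) signal drop marks a time point as decreased. The authors' rule for a hit is not shown and takes in more than the number of time points.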

Protein sequences, listed by entry. Tags and fused reporters are not part of them. Lines headed by an entry give the natural chain unless they say otherwise; changes in a name come on top.
UniProt P50613: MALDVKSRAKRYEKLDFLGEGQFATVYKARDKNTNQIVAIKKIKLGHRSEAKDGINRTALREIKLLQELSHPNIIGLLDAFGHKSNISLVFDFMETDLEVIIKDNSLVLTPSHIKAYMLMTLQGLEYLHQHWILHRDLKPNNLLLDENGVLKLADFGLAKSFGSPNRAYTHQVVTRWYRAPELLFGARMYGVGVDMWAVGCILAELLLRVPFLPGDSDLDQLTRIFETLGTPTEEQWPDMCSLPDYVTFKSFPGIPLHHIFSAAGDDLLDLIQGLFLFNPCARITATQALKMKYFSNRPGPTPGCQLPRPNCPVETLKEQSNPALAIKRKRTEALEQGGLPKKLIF
UniProt P50750, whole entry: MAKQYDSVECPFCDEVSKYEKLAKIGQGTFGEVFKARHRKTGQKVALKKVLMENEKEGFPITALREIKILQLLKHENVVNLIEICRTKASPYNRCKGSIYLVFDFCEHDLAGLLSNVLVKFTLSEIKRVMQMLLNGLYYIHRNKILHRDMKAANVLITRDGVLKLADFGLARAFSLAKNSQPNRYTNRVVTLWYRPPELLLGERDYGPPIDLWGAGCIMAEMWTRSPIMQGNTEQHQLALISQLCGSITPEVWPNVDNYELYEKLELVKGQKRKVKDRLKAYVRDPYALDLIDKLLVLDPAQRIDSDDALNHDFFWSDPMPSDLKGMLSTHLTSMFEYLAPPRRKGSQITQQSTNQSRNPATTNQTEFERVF
UniProt O96017, whole entry: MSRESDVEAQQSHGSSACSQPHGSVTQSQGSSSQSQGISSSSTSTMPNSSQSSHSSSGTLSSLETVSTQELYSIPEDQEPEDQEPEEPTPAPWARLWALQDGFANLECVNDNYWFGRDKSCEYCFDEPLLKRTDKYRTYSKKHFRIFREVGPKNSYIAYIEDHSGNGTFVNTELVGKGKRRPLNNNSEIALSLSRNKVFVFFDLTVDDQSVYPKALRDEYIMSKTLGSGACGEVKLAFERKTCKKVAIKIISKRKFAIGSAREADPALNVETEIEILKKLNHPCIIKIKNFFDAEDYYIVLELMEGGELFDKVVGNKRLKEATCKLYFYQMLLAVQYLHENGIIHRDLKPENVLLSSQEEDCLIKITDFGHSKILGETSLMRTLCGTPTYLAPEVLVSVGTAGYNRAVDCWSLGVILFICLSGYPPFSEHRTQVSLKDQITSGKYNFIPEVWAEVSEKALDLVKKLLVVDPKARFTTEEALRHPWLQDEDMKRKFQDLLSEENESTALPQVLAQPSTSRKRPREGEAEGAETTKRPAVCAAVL
UniProt P07333, whole entry: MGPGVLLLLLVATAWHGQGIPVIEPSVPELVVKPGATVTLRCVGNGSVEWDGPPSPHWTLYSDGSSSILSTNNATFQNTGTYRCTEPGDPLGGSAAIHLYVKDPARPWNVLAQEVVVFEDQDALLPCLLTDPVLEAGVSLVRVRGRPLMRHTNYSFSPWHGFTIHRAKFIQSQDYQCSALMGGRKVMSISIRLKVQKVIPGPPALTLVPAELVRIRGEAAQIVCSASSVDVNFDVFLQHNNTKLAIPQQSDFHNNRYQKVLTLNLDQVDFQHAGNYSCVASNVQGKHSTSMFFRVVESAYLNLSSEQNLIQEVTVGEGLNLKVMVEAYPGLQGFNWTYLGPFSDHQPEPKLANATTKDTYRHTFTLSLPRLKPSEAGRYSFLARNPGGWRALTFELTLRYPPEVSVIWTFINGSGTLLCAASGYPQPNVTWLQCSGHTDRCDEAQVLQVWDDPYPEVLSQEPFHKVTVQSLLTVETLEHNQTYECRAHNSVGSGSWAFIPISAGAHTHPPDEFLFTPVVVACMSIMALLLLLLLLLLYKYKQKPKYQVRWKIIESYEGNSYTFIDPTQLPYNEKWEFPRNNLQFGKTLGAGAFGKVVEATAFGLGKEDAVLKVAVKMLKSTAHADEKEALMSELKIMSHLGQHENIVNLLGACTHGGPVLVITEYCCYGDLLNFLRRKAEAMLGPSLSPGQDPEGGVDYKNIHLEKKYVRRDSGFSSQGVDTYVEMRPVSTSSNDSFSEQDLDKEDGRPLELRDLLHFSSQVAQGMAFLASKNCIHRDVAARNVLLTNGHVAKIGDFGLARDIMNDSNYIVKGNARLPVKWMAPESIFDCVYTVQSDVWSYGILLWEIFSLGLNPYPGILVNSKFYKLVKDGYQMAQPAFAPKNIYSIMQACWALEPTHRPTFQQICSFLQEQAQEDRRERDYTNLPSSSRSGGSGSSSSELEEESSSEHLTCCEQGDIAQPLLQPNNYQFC
UniProt P41240: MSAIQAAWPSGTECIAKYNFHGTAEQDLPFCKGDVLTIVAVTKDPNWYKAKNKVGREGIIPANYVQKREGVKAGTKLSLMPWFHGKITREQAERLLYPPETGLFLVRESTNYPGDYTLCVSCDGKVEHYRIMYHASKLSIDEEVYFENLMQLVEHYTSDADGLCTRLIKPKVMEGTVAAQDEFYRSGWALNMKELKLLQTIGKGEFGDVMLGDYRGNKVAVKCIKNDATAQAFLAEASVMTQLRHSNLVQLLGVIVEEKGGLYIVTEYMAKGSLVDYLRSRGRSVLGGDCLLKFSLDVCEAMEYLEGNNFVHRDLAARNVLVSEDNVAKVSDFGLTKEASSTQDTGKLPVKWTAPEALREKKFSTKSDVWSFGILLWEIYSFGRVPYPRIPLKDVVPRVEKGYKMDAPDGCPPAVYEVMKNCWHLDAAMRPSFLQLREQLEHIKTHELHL
UniProt P48729: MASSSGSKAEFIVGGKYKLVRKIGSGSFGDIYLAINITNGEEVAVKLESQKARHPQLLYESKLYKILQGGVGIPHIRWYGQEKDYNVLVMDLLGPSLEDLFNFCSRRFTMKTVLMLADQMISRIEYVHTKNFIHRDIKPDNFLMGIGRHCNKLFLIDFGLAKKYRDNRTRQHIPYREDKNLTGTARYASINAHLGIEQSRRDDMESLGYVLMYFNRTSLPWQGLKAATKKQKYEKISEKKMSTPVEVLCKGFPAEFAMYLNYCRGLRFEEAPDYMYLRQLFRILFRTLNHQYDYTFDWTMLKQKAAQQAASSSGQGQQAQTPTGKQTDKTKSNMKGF
UniProt P48730: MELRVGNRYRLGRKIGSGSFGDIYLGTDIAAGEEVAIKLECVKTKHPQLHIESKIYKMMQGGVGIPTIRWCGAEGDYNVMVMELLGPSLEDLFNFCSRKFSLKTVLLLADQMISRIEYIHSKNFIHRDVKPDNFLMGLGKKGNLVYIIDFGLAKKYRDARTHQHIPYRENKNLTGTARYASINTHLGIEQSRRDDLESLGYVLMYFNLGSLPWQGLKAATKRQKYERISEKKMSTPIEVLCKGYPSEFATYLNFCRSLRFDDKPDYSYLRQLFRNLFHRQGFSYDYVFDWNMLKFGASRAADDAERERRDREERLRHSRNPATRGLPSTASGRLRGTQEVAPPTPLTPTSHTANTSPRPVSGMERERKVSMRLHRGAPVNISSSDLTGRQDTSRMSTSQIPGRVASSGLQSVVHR
UniProt Q08345: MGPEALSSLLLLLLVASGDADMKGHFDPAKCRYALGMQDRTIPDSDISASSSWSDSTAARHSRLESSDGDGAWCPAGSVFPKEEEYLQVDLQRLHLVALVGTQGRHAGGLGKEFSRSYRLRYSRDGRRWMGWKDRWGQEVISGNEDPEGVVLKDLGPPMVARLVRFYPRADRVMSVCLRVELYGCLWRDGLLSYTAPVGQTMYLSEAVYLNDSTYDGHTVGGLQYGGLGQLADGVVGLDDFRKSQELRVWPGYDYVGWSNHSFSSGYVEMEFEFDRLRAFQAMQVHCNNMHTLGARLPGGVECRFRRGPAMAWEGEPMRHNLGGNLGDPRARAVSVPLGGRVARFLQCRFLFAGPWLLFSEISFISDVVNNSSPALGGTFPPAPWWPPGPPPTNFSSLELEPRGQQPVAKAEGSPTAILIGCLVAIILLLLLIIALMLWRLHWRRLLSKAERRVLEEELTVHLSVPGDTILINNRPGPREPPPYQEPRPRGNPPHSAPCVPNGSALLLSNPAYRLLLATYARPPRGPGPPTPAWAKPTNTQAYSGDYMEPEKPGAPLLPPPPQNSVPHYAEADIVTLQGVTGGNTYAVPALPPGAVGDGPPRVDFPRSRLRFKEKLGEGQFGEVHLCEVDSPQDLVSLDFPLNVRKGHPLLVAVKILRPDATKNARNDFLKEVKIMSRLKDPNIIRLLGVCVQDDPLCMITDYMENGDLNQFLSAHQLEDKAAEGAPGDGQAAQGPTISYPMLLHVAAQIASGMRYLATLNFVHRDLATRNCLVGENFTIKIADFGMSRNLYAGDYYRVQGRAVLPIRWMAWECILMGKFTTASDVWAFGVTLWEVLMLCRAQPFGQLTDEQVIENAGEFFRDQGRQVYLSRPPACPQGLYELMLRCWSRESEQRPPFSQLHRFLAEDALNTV
UniProt Q9Y463, whole entry, looked up: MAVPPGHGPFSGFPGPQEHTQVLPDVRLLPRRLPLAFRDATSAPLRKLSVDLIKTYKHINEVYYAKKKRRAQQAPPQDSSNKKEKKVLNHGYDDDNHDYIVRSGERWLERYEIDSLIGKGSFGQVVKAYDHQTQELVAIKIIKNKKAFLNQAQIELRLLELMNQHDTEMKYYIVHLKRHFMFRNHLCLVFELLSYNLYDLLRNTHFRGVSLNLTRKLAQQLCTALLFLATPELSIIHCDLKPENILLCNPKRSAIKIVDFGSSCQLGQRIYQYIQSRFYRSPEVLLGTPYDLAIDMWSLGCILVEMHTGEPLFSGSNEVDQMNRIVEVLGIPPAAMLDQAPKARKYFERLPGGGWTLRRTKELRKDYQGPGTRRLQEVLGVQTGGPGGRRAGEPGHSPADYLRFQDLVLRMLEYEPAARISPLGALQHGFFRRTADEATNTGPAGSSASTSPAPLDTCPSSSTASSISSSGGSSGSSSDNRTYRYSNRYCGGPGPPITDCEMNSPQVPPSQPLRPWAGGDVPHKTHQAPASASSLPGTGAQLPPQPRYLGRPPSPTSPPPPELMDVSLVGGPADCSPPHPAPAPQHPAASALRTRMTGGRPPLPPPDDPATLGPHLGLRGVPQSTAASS
UniProt Q92630: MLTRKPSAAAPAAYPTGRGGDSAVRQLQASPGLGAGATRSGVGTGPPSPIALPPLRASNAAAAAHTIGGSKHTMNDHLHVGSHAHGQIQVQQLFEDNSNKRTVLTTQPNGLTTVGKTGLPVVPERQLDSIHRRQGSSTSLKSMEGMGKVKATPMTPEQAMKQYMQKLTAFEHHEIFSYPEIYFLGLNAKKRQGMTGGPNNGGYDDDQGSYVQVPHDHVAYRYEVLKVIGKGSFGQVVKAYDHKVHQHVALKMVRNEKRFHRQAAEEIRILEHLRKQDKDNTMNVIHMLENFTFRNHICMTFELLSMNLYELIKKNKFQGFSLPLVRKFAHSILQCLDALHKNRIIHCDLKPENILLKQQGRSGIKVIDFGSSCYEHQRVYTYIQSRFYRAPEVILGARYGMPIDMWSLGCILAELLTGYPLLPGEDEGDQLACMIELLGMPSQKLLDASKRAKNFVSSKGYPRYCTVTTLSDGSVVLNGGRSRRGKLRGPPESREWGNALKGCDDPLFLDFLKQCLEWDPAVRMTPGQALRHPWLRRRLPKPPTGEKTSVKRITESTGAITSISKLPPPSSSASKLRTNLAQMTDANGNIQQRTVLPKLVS

Assays:
Assay in all cases: kinase-Nluc reporter destabilization hit call (1 = scored as downregulated) (binary); higher = compound decreases kinase abundance
Settings in all cases: K562, 2-18 h
CDK7 = CDK7 (UniProt P50613)
CDK9 = CDK9 (UniProt P50750)
CHEK2 = CHEK2 (UniProt O96017)
CSF1R = CSF1R (UniProt P07333)
CSK = CSK (UniProt P41240)
CSNK1A1 = CSNK1A1 (UniProt P48729)
CSNK1D = CSNK1D (UniProt P48730)
DDR1 = DDR1 (UniProt Q08345)
DYRK1B = DYRK1B (UniProt Q9Y463)
DYRK2 = DYRK2 (UniProt Q92630)

SMILES | kinase-Nluc reporter destabilization hit call (CDK7; 10 µM) | kinase-Nluc reporter destabilization hit call (CDK9; 10 µM) | kinase-Nluc reporter destabilization hit call (CHEK2; 10 µM) | kinase-Nluc reporter destabilization hit call (CSF1R; 10 µM) | kinase-Nluc reporter destabilization hit call (CSK; 10 µM) | kinase-Nluc reporter destabilization hit call (CSNK1A1; 10 µM) | kinase-Nluc reporter destabilization hit call (CSNK1D; 10 µM) | kinase-Nluc reporter destabilization hit call (DDR1; 10 µM) | kinase-Nluc reporter destabilization hit call (DYRK1B; 10 µM) | kinase-Nluc reporter destabilization hit call (DYRK2; 10 µM) | kinase-Nluc reporter destabilization hit call (CDK7; 2.5 µM) | kinase-Nluc reporter destabilization hit call (CDK9; 2.5 µM) | kinase-Nluc reporter destabilization hit call (CHEK2; 2.5 µM) | kinase-Nluc reporter destabilization hit call (CSF1R; 2.5 µM) | kinase-Nluc reporter destabilization hit call (CSK; 2.5 µM) | kinase-Nluc reporter destabilization hit call (CSNK1A1; 2.5 µM) | kinase-Nluc reporter destabilization hit call (CSNK1D; 2.5 µM) | kinase-Nluc reporter destabilization hit call (DDR1; 2.5 µM) | kinase-Nluc reporter destabilization hit call (DYRK1B; 2.5 µM) | kinase-Nluc reporter destabilization hit call (DYRK2; 2.5 µM)
O=C(c1ccc(F)c(F)c1Nc1ccc(I)cc1F)N1CC(O)([C@@H]2CCCCN2)C1 [Cobimetinib (hemifumarate)] | inactive: 0 | inactive: 0 | inactive: 0 | inactive: 0 | inactive: 0 | inactive: 0 | inactive: 0 | inactive: 0 | inactive: 0 | inactive: 0 |  |  |  |  |  |  |  |  |  | 
Cc1cccc(/C=N/Nc2cc(N3CCOCC3)nc(OCCc3ccccn3)n2)c1 [Apilimod (mesylate)] | inactive: 0 | inactive: 0 | inactive: 0 | inactive: 0 | inactive: 0 | inactive: 0 | inactive: 0 | inactive: 0 | inactive: 0 | inactive: 0 |  |  |  |  |  |  |  |  |  | 
COc1cc2c(-c3cnn4cc(N5CCC(N6CCN(C)CC6)CC5)cnc34)ccnc2cc1F [ALK2-IN-4 (succinate)] | inactive: 0 | inactive: 0 | inactive: 0 | inactive: 0 | inactive: 0 | inactive: 0 | inactive: 0 | inactive: 0 | inactive: 0 | inactive: 0 |  |  |  |  |  |  |  |  |  | 
CC(C)Nc1cc(-c2c[nH]c(C(=O)N[C@H](CO)c3cccc(Cl)c3)c2)c(Cl)cn1 [Ulixertinib] | inactive: 0 | inactive: 0 | inactive: 0 | inactive: 0 | inactive: 0 | inactive: 0 | inactive: 0 | inactive: 0 | inactive: 0 | inactive: 0 |  |  |  |  |  |  |  |  |  | 
O=C(c1ccc(F)c(F)c1Nc1ccc(I)cc1F)N1CC(O)([C@@H]2CCCCN2)C1 [Cobimetinib] | inactive: 0 | inactive: 0 | inactive: 0 | inactive: 0 | inactive: 0 | inactive: 0 | inactive: 0 | inactive: 0 | inactive: 0 | inactive: 0 |  |  |  |  |  |  |  |  |  | 
COc1cc2c(cc1OC)-c1c(C)c3ccc(OC)c(OC)c3c[n+]1CC2 [Dehydrocorydaline] | inactive: 0 | inactive: 0 | inactive: 0 | inactive: 0 | inactive: 0 | inactive: 0 | inactive: 0 | inactive: 0 | inactive: 0 | inactive: 0 |  |  |  |  |  |  |  |  |  | 
CCS(=O)(=O)N1CCN(c2ccc(Nc3ncc(C(N)=O)c(NC4CC4)n3)cc2)CC1 [Cerdulatinib (hydrochloride)] | active: 1 | inactive: 0 | inactive: 0 | inactive: 0 | inactive: 0 | inactive: 0 | inactive: 0 | inactive: 0 | inactive: 0 | inactive: 0 |  |  |  |  |  |  |  |  |  | 
Cn1cc(-c2cnc3ccc4ccc(CS(=O)(=O)NCc5ccccn5)cc4c(=O)c3c2)cn1 [MK-8033 (hydrochloride)] | inactive: 0 | inactive: 0 | inactive: 0 | inactive: 0 | inactive: 0 | inactive: 0 | inactive: 0 | inactive: 0 | inactive: 0 | inactive: 0 |  |  |  |  |  |  |  |  |  | 
CNC(=O)c1cc(Oc2ccc(NC(=O)Nc3ccc(Cl)c(C(F)(F)F)c3)c(F)c2)ccn1 [Regorafenib (monohydrate)] |  |  |  |  |  |  |  |  |  |  | inactive: 0 | inactive: 0 | inactive: 0 | inactive: 0 | inactive: 0 | inactive: 0 | inactive: 0 | inactive: 0 | inactive: 0 | inactive: 0
CN(C)C(=N)NC(=N)N [Metformin] | inactive: 0 | inactive: 0 | inactive: 0 | inactive: 0 | inactive: 0 | inactive: 0 | inactive: 0 | inactive: 0 | inactive: 0 | inactive: 0 |  |  |  |  |  |  |  |  |  | 
CCCCCCCCc1ccc(CCC(N)(CO)CO)cc1 [Fingolimod (hydrochloride)] |  |  |  |  |  |  |  |  |  |  | inactive: 0 | inactive: 0 | inactive: 0 | inactive: 0 | inactive: 0 | inactive: 0 | inactive: 0 | inactive: 0 | inactive: 0 | inactive: 0
CCN(CC)CC(=O)Nc1c(C)cccc1C [Lidocaine] | inactive: 0 | inactive: 0 | inactive: 0 | inactive: 0 | inactive: 0 | inactive: 0 | inactive: 0 | inactive: 0 | inactive: 0 | inactive: 0 |  |  |  |  |  |  |  |  |  | 
Cn1ncc(Cl)c1-c1cc(C(=O)N[C@H](CN)Cc2cccc(F)c2)sc1Cl [Afuresertib (hydrochloride)] | inactive: 0 | inactive: 0 | inactive: 0 | inactive: 0 | inactive: 0 | inactive: 0 | inactive: 0 | inactive: 0 | inactive: 0 | inactive: 0 |  |  |  |  |  |  |  |  |  | 
CCN(CC)CC(=O)Nc1c(C)cccc1C [Lidocaine (hydrochloride)] | inactive: 0 | inactive: 0 | inactive: 0 | inactive: 0 | inactive: 0 | inactive: 0 | inactive: 0 | inactive: 0 | inactive: 0 | inactive: 0 |  |  |  |  |  |  |  |  |  | 
O=C(Nc1ccncc1)Nc1ccc(-c2nc(N3CCOCC3)nc(N3C4CCC3COC4)n2)cc1 | inactive: 0 | inactive: 0 | inactive: 0 | inactive: 0 | inactive: 0 | inactive: 0 | inactive: 0 | inactive: 0 | inactive: 0 | inactive: 0 |  |  |  |  |  |  |  |  |  | 
